Values from PubChem BioAssay AID686943 (Drosophila RNAi Screening Center, 2013).

Purpose: 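Knockdowns that increase or decrease active ERK after insulin receptor stimulation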 (primary screen)
System: Drosophila S2R+ haemocyte-like cells expressing YFP-tagged ERK (Rolled)
Knock-down reagent: long dsRNA against Drosophila genes
Conditions: insulin stimulation versus unstimulated cells; dose and duration not given
Measured: 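Per-plate z-scores of phospho-ERK immunostaining normalised to YFP-tagged ERK, measured with and without insulin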
Reading the numbers: replicate 1, z-score of dpERK with insulin and replicate 2, z-score of dpERK with insulin: higher = more active ERK per ERK-YFP after insulin; replicate 1, z-score of dpERK under basal conditions: higher = more basal active ERK per ERK-YFP; replicate 1, z-score of ERK-YFP with insulin: higher = more YFP-tagged ERK signal
The deposit covers about 23,000 reagents; this is a random part of those that have a named target and a result. 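Extra replicates exist only for a retested subset of genes; insulin dose and duration not given; both raised and lowered dpERK matter.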 Names joined by + are all predicted targets of the reagent. No sequences are given here. The record does not give: the amount of reagent, the time to read-out.

replicate 1, z-score of dpERK with insulin	replicate 2, z-score of dpERK with insulin	replicate 1, z-score of dpERK under basal conditions	replicate 1, z-score of ERK-YFP with insulin	Target gene	DRSC id
-5.89	-4.69	-1.4	-3.07	CG12236	DRSC17830
-0.36	0	-0.15	0.66	CG12236	DRSC17831
2.86	0.3	1.01	-2.48	CG11298	DRSC04100
2.34	1.23	-1.63	-0.15	AP-1-2beta	DRSC19336
-0.88	0.45	-0.26	-0.65	Coq9	DRSC22913
-0.51	0.35	0.12	0.63	CG14182	DRSC10181
1.78	0.54	-0.89	0.97	CG13678	DRSC10036
-0.78	-1.15	-0.54	0.8	CG31809	DRSC01561
-0.31	0.13	-0.32	1.32	CG14355	DRSC14818
0.44	1.86	1.56	-0.8	SkpB	DRSC07683
0.16	-0.5	0.51	0.17	pps	DRSC16057
0.24	1.18	0.53	0	CG13999	DRSC02331
-0.03	-0.07	-3.99	-0.82	Ugt35C1	DRSC16080
1.06	0.46	0.1	1.58	CG7920	DRSC16346
0.06	-0.03	0.23	1.87	CG7920	DRSC21594
0.99	0.11	0.04	-0.65	CG4161	DRSC01930
0.5	0.21	0.05	-0.4	CG6972	DRSC16159
0.87	0.37	1.19	0.86	CG32271	DRSC08198
0.15	-0.3	0.64	0	DptA	DRSC07404
1.74	0.02	0.48	0.02	tau	DRSC14569
0.07	-0.19	-0.31	-0.21	CG33303	DRSC02848
-0.02	-0.56	0.88	0.37	CG14857	DRSC14981
1.19	-0.28	-0.22	-0.32	CAH16	DRSC15371
0.03	0.66	0.29	-0.58	LysS	DRSC08677
-0.11	0.13	-0.57	-0.12	DIP-zeta	DRSC02203
0.3	-0.2	-0.5	-0.3	DIP-zeta	DRSC02204
0.16	-0.21	-0.57	0.95	DIP-zeta	DRSC02205
-1.55	-1.21	1.58	-0.21	Bace	DRSC02197

Laid out differently: entries from further up
{"Target gene": "tau", "DRSC id": "DRSC14569", "replicate 1, z-score of dpERK with insulin": 1.74, "replicate 2, z-score of dpERK with insulin": 0.02, "replicate 1, z-score of dpERK under basal conditions": 0.48, "replicate 1, z-score of ERK-YFP with insulin": 0.02}
{"Target gene": "CG33303", "DRSC id": "DRSC02848", "replicate 1, z-score of dpERK with insulin": 0.07, "replicate 2, z-score of dpERK with insulin": -0.19, "replicate 1, z-score of dpERK under basal conditions": -0.31, "replicate 1, z-score of ERK-YFP with insulin": -0.21}
{"Target gene": "CG14857", "DRSC id": "DRSC14981", "replicate 1, z-score of dpERK with insulin": -0.02, "replicate 2, z-score of dpERK with insulin": -0.56, "replicate 1, z-score of dpERK under basal conditions": 0.88, "replicate 1, z-score of ERK-YFP with insulin": 0.37}
{"Target gene": "CAH16", "DRSC id": "DRSC15371", "replicate 1, z-score of dpERK with insulin": 1.19, "replicate 2, z-score of dpERK with insulin": -0.28, "replicate 1, z-score of dpERK under basal conditions": -0.22, "replicate 1, z-score of ERK-YFP with insulin": -0.32}
{"Target gene": "LysS", "DRSC id": "DRSC08677", "replicate 1, z-score of dpERK with insulin": 0.03, "replicate 2, z-score of dpERK with insulin": 0.66, "replicate 1, z-score of dpERK under basal conditions": 0.29, "replicate 1, z-score of ERK-YFP with insulin": -0.58}
{"Target gene": "DIP-zeta", "DRSC id": "DRSC02203", "replicate 1, z-score of dpERK with insulin": -0.11, "replicate 2, z-score of dpERK with insulin": 0.13, "replicate 1, z-score of dpERK under basal conditions": -0.57, "replicate 1, z-score of ERK-YFP with insulin": -0.12}
{"Target gene": "DIP-zeta", "DRSC id": "DRSC02204", "replicate 1, z-score of dpERK with insulin": 0.3, "replicate 2, z-score of dpERK with insulin": -0.2, "replicate 1, z-score of dpERK under basal conditions": -0.5, "replicate 1, z-score of ERK-YFP with insulin": -0.3}
{"Target gene": "DIP-zeta", "DRSC id": "DRSC02205", "replicate 1, z-score of dpERK with insulin": 0.16, "replicate 2, z-score of dpERK with insulin": -0.21, "replicate 1, z-score of dpERK under basal conditions": -0.57, "replicate 1, z-score of ERK-YFP with insulin": 0.95}
{"Target gene": "Bace", "DRSC id": "DRSC02197", "replicate 1, z-score of dpERK with insulin": -1.55, "replicate 2, z-score of dpERK with insulin": -1.21, "replicate 1, z-score of dpERK under basal conditions": 1.58, "replicate 1, z-score of ERK-YFP with insulin": -0.21}

Further reagents:
replicate 1, z-score of dpERK with insulin	replicate 2, z-score of dpERK with insulin	replicate 1, z-score of dpERK under basal conditions	replicate 1, z-score of ERK-YFP with insulin	Target gene	DRSC id
0.28	0.46	0.06	0	CG12129	DRSC06105
0.04	-0.44	1.67	0.22	CG11601	DRSC00318
-0.06	0.16	-0.06	0.41	CG1368	DRSC19537
-0.78	-0.25	-1.32	-0.05	Spn31A	DRSC02780
-1.32	-0.92	1.26	-0.94	Vha100-5	DRSC02175
0.1	-0.15	0.08	0.19	CG15719	DRSC19685
-0.11	-0.59	0.09	-0.76	Dhpr	DRSC11135
-0.18	0.26	-0.28	-0.16	CG8568	DRSC20113
0.22	0.15	-0.71	0.05	Vajk2	DRSC02540
-0.35	-0.27	0.64	0.19	Nrt	DRSC11237
-0.79	0.04	-1.3	0.13	CR40354	DRSC20923
-3.96	-3.57	-3.1	-5.15	CG42700	DRSC06292
0.43	1.1	0.55	-0.02	CG42700	DRSC06293
0.61	-0.39	0.85	-0.68	Sc2	DRSC08162
0.06	0.12	0	0.19	CG7407	DRSC11824
-0.38	0.57	2.41	1.42	tkv + CR14033 + tRNA:Asp-GTC-2-1 + 1 more	DRSC00861
0.29	0.85	-0.76	-0.86	CG34188	DRSC05549
-0.04	-0.32	-0.84	-2.73	CG2321	DRSC15439
0.26	0.44	0.02	0.61	CG43439 + CG32388	DRSC08861
0.11	0.1	-0.32	0.35	Ir47a	DRSC06215
1.37	0.72	2.8	-1.25	tho2	DRSC00646
-0.85	2.4	-1.74	1.14	CG4658	DRSC02768
0.83	0.04	-0.42	-0.51	Tengl4	DRSC15620
-0.1	-0.15	0.68	-0.51	Orc6	DRSC07497
-0.55	-0.67	-0.42	0.34	RAF2	DRSC10443
-0.75	-0.18	0.35	0.26	RAF2	DRSC10454
-0.01	-1.48	-0.18	1.29	mRpS11	DRSC15732
1.08	0.49	0.72	-1.69	CG5882	DRSC15907
-0.07	0.11	0.03	-0.11	CG7653	DRSC01886
